## Screening data, single-dose tests

Measurements from “University of Dundee, Small-Polar-MMV Screening Library” (2021), ChEMBL document CHEMBL3988442.

The filed quantity is “Percent Effect” (%). The record does not define 0% and 100%; most values in the screen are far below 50% and negative numbers occur (in some assays of this library far below -100). This is an unselected part of the compounds tested. Two or more numbers in one place are separate tests of the same structure; such repeats can differ widely.

Mtb cholesterol medium: 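Growth of Mycobacterium tuberculosis over 4 days (cholesterol / DPPC medium with tyloxapol); the read-out is not stated. Tested at 50 µM. Higher reads as more growth inhibition (inferred: compounds with an IC50 in retests scored well above the rest). About 69,000 compounds were tested under these conditions; 0.54% (about 370) showed 50% or more at least once.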
Mtb glucose medium: 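Phenotypic screen: M. tuberculosis growth, glucose 7H9 medium, 3 days; the read-out is not stated. Compounds at 50 µM. The record gives no direction; compounds that gave an IC50 in retests scored well above the rest, so higher reads as more growth inhibition. About 69,000 compounds were tested under these conditions; 1.1% (about 760) showed 50% or more at least once.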

Compound,Mtb cholesterol medium,Mtb glucose medium
CC(=O)N1CC(C(=O)Nc2cccc(OC(F)F)c2)C1,22.07%,25.53% and -2.893%
Cn1ccnc1CN(CCO)C(=O)C1CCN(C(=O)C2CC2)CC1,1.6%,-29.25%
CCc1nc(C2CCCN(C(=O)c3c(C)noc3C)C2)no1 (stereo not drawn),4.46%,9.669%
COc1ccc(-c2cc(C3(O)CCN(C)CC3)on2)cc1,-12.98%,-15.87% and -1.757%
Cc1ccc(N2CCC3(CCCN(C(=O)c4cnccn4)C3)C2)nn1 (stereo not drawn),5.025%,-0.004238%
Cc1nc(-c2cccc(N3CCC(NC4CCSC4)CC3)c2)cs1 (stereo not drawn),7.085%,10.05% and 0.7682%
CN(Cc1nc(CS(C)(=O)=O)no1)c1ccccc1,10.66%,-1.744% and 3.891%
Cc1c(Br)cccc1C(=O)Nc1cc(C(N)=O)n(C)c1,18.34%,-2.544%
Cc1n[nH]c(C)c1NC(=O)CN1CCCC1c1noc(C(C)C)n1 (stereo not drawn),-31.05%,-14.16%
CCCc1noc(CCC(=O)N2CCCC2c2cccs2)n1 (stereo not drawn),15.35%,19.83%
O=C(c1coc(COc2cccc(F)c2)n1)N1CC[C@H](O)[C@@H](O)C1,7.879%,-21.25%
CCn1cc(S(=O)(=O)N2CCC3(CCCN(CC4CCC4)C3=O)C2)cn1 (stereo not drawn),-14.41%,23.41%
COc1ccc(F)cc1NC(=O)NCC1(C)COC1,-5.756% and -8.372%,-37.1% and -8.755%
O=C(NC1CCN(CC2CC2)C1)c1ccc(C(=O)c2cc[nH]c2)cc1 (stereo not drawn),8.817% and -15.15%,-9.804%
O=S(=O)(c1ccccc1N1CC(n2cccn2)C1)C(F)(F)F,11.59%,6.756%
[H][C@@]12COC[C@]1(C(=O)NCCc1cccs1)CN(S(C)(=O)=O)C2,-22.89%,-18.11%
Cc1cnc(CN(C)C2CCN(CCc3ccccn3)CC2)cn1,-3.778%,-7.686%
Cc1nc(C(C)C)sc1C(=O)NCCSc1nccn1C,-5.004%,-24.31% and 3.134%
O=C(O)C(F)(F)F.O=C(O)C(F)(F)F.[H][C@@]12CC(COc3ccccn3)C[C@@]1([H])N(Cc1ccoc1)CCO2 (stereo partly drawn),7.108%,34.43%
COc1cccc(-c2cc(C(=O)Nc3nc[nH]n3)[nH]n2)c1,-5.784%,12.85%
COc1cccc(OCC2CCCN(C(=O)CCCn3cccn3)C2)c1 (stereo not drawn),0.9691%,-16.75%
CCCS(=O)(=O)N1CCN(C(C)(C)CO)CC1,-17.46%,-23.59% and -8.069%
CC(=O)N1CCN(c2cc(-n3cccc3)ncn2)CC1,14.24%,8.964% and -0.9725%
NC(=O)CCN1C(=O)CC(Cc2ccc(F)cc2)C1=O (stereo not drawn),10.93% and 2.798%,-37.44%
COCc1noc(-c2ccc(N3CCCCC3CCCO)nc2)n1 (stereo not drawn),18.18%,14.77%
CC(=O)N1CCC1c1cc(N2CCSCC2)nc(C)n1 (stereo not drawn),12.42% and -6.247%,-12.46%
CCNC(=O)NC(=O)CN1CCOC(c2ccccc2Cl)C1 (stereo not drawn),-15.25%,7.434% and 2.605%
COc1ccc(CNC(=O)NCC(O)(c2cccs2)C2CC2)cc1 (stereo not drawn),-20.34%,5.152% and -10.79%
O=C(NCCO)Nc1cnc2cc(Cl)ccc2c1O,-7.992%,-7.691%
O=C(O)C(F)(F)F.[H][C@@]12OCCN(C(=O)C3CCOCC3)[C@@]1([H])CC[C@H]2Oc1cccnc1,4.183%,5.804%
CNC(=O)c1nc2c(s1)CCN(C(=O)c1cccnc1)CC2.O=C(O)C(F)(F)F,7.451%,1.849%
O=C(O)C(F)(F)F.[H][C@@]12CCCO[C@]1([H])[C@@H](OC)CN2CC1CCOCC1,-20.61%,9.45%
Cn1cccc1C(=O)N1CCc2ncnc(N3CCOCC3)c2CC1,5.314% and -10.28%,-8.957%
COCc1noc(-c2ccc(N(C)Cc3ncccc3C)nc2)n1,-1.136% and -14.03%,-0.08727%
CCC(COC)NC(=O)N1CCC(n2ccc(C(F)(F)F)n2)CC1 (stereo not drawn),-3.649%,-19.96%
Cc1nnc(CN(C)Cc2ccc(C(=O)Nc3sccc3C#N)cc2)o1,-10.99% and -8.106%,-33.87%
O=C(O)C(F)(F)F.O=C(O)C(F)(F)F.O=C(c1cccnc1)N1Cc2nccn2CC(COc2cccnc2)C1 (stereo not drawn),-10.74%,8.697%
Cc1cccc(C(=O)N2CCCn3cnc(CN4CCCC4=O)c3C2)n1,-15.54%,-54.8%
O=C(Cc1cccs1)N1Cc2nc(COCC3CC3)oc2C1,-6.905%,-7.863%
Cc1nc(C)c(C(=O)N2CCc3nc4sc(C)cc4c(=O)n3CC2)o1,-16.91%,-2.472%
CC(=O)N1CCc2nc(-c3ccccc3)nc(NC(C)C)c2CC1,3.912%,0.5089%
O=C(c1cc(-n2cccn2)ccc1Cl)N1CCC(N2CCCC2=O)CC1,10.09%,-0.57% and -0.9122%

Some entries from above, unchanged:

| Compound | Mtb cholesterol medium | Mtb glucose medium |
|---|---|---|
| `CC(=O)N1CCC1c1cc(N2CCSCC2)nc(C)n1` (stereo not drawn) | 12.42% and -6.247% | -12.46% |
| `O=C(NC1CCN(CC2CC2)C1)c1ccc(C(=O)c2cc[nH]c2)cc1` (stereo not drawn) | 8.817% and -15.15% | -9.804% |
| `O=C(c1coc(COc2cccc(F)c2)n1)N1CC[C@H](O)[C@@H](O)C1` | 7.879% | -21.25% |